Assay results published in patent US4045433A, “1,3,4,5-Tetrahydro-2H-1,4-benzodiazepin-2-ones” (priority 1974, dated 1977).

Tests used:
Design in all cases: species or system CFLP mice
Acute toxicity = settings: mouse, in vivo, po; death rate observed for one week
[1] = Traction test (muscle incoordination and ataxia); settings: mouse, in vivo, po, 1 hour before test; read-out: Traction test ED50
Description: b. Traction test: The test was carried out according to the method of Theobald et al. (Arch. int. Pharmacodyn. 148, 560 (1964)). The two anterior limbs of the test animals were placed onto a horizontal rod so as to let the animals clutch the rod. The control animals pulled their hind limbs onto the rod within 5 seconds. The ED50 values were calculated from the percentage of the animals showing negative response.

[2] = Rotarod test (muscle incoordination and ataxia); settings: mouse, in vivo, po, 1 hour before test; 12/min., 120 sec.; read-out: Rotarod test ED50
Description: a. Rotarod test: The test was carried out according to the method of Kinnard and Carr (Brit. J. Pharmacol. Exp. Ther. 121, 354 (1957)). The control animals were able to stay for 120 sec. on a rod rotated with a frequency of 12/min. The ED50 values were calculated from the percentage of the animals falling down within 120 sec.

CN1C(=O)CN=C(c2ccccc2)c2cc(Cl)ccc21 [Diazepam]
LD50 at 168 h (Acute toxicity): 815 mg/kg | TD50 at 1 h [1]: 4.4 mg/kg | TD50 at 1 h [2]: 3.1 mg/kg
